Results are given in words; binding and its absence hold for the method and conditions named. Some entries that bind do so weakly or less than the wild type.
Target: HSV1 gE/gI complex on glioma cells expressing both Us7 and Us8 (glioma Us7+Us8) (herpes simplex virus 1 (F strain)) (UniProt P04488)
Assay: flow cytometry on transfected glioma cells

Sequences of proteins named here, by UniProt entry; tags and fusion partners are left off. A change or cut given only in a name is not applied to a line headed by its entry.
UniProt P04488: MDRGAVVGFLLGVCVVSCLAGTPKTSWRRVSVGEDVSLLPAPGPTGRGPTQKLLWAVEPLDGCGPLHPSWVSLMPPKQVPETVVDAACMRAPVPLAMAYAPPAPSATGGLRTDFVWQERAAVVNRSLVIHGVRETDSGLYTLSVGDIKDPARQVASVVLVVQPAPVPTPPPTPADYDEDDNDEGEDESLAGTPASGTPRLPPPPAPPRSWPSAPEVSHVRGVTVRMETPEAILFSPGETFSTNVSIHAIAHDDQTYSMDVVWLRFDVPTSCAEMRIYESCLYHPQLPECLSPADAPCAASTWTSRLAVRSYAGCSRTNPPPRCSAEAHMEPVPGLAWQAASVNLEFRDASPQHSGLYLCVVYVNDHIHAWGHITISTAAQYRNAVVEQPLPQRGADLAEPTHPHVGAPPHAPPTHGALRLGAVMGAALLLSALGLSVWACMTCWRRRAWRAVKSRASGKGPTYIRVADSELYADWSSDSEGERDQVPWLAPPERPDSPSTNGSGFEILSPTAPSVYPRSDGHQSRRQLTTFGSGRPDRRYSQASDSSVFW

Question: With “IgG1 Fc(ACD16), recombinant human IgG1 Fc fragment aa262-466 without the CD16a binding sites (from UniProt P0DOX5 245-449)” as the substance, how does the binding read?
Answer: Its binding is “binds”.

From patent US20200040064A1 (OHIO STATE INNOVATION FOUNDATION, published 2020)
